Reference: PubChem BioAssay AID1259425 (University of Nebraska Medical Center, 2018)

Screen: 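Compare each knockdown with KSR1 silencing using changes in marker transcripts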 (primary screen)
System: HCT116 human colon cancer cells
Reagent: siRNA pool against human genes, 50 nM siRNA
Read-out: 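mRNA of six signature genes measured together by branched-DNA assay after 50 nM siRNA pool, blank removed, divided by geometric mean of two housekeeping genes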
Direction: BNIP3L mRNA: higher = more BNIP3L transcript after knockdown; NDRG1 mRNA: higher = more NDRG1 transcript after knockdown; BNIP3 mRNA: higher = more BNIP3 transcript after knockdown; ALDOC mRNA: higher = more ALDOC transcript after knockdown; ACSL5 mRNA: higher = more ACSL5 transcript after knockdown
Here is one part, drawn at random, of about 14,000 deposited reagents. Not stated in the record: the time to read-out.

target	BNIP3L mRNA, set 1	NDRG1 mRNA, set 1	BNIP3 mRNA, set 1	ALDOC mRNA, set 1	ACSL5 mRNA, set 1
CSPG5 (chondroitin sulfate proteoglycan 5)	0.216	0.404	0.157	0.0416	0.218
GLRX (glutaredoxin)	0.095	0.0609	0.25	0.0153	0.16
TREM2 (triggering receptor expressed on myeloid cells 2)	0.0831	0.179	0.309	0.0375	0.191
TMEM106B (transmembrane protein 106B)	0.148	0.217	0.362	0.0523	0.166
CACNA1I (calcium voltage-gated channel subunit alpha1 I)	0.124	0.184	0.342	0.0282	0.133
POMC (proopiomelanocortin)	0.12	0.287	0.303	0.0197	0.141
CDS2 (CDP-diacylglycerol synthase 2)	0.059	0.325	0.253	0.0477	0.159
TPCN1 (two pore segment channel 1)	0.161	0.112	0.291	0.0244	0.133
GATAD2A (GATA zinc finger domain containing 2A)	0.0732	0.189	0.304	0.0194	0.0478
COPRS (coordinator of PRMT5 and differentiation stimulator)	0.095	0.118	0.333	0.011	0.105
RNF19A (ring finger protein 19A, RBR E3 ubiquitin protein ligase)	0.0991	0.0964	0.503	0.0163	0.233
CEBPA-DT (CEBPA divergent transcript)	0.079	0.0623	0.268	0.0134	0.0842
IFT122 (intraflagellar transport 122)	0.149	0.334	0.22	0.0269	0.235
CDC123 (cell division cycle 123)	0.0961	0.5	0.245	0.0499	0.273
FGB (fibrinogen beta chain)	0.0767	0.233	0.236	0.0222	0.146
CALB2 (calbindin 2)	0.216	0.505	0.377	0.0243	0.255
GOLGA5 (golgin A5)	0.18	0.145	0.331	0.0404	0.198
RGS13 (regulator of G protein signaling 13)	0.068	0.328	0.265	0.0214	0.203
PURA (purine rich element binding protein A)	0.0881	0.117	0.234	0.00912	0.182
C17orf75 (chromosome 17 open reading frame 75)	0.0993	0.197	0.232	0.0229	0.142
SNU13 (small nuclear ribonucleoprotein 13)	0.171	0.414	0.37	0.0956	0.231
FXR1 (FMR1 autosomal homolog 1)	0.0816	0.2	0.466	0.0126	0.219
HOXC8 (homeobox C8)	0.109	0.13	0.275	0.0191	0.181
VCPIP1 (valosin containing protein interacting protein 1)	0.0584	0.619	0.401	0.0292	0.393
STAB1 (stabilin 1)	0.075	0.134	0.268	0.0196	0.0941
TMED10 (transmembrane p24 trafficking protein 10)	0.158	2	0.322	0.0108	0.351
ESRP1 (epithelial splicing regulatory protein 1)	0.101	0.162	0.295	0.0438	0.103
NASP (nuclear autoantigenic sperm protein)	0.155	0.229	0.384	0.033	0.252
MFRP (membrane frizzled-related protein)	0.184	0.191	0.257	0.089	0.205
NELFA (negative elongation factor complex member A)	0.107	0.19	0.39	0.0154	0.132
FUBP1 (far upstream element binding protein 1)	0.166	0.257	0.349	0.00255	0.262
UNC45A (unc-45 myosin chaperone A)	0.0785	0.116	0.312	0.034	0.123
CPA2 (carboxypeptidase A2)	0.0937	0.139	0.276	0.00457	0.258
EIF1AD	0.111	0.441	0.236	0.0396	0.301
FGF18 (fibroblast growth factor 18)	0.246	0.257	0.55	0.127	0.211
PLCD4 (phospholipase C delta 4)	0.179	0.337	0.3	0.0279	0.148
RUVBL1 (RuvB like AAA ATPase 1)	0.0606	0.227	0.321	0.0322	0.132
ZNF594 (zinc finger protein 594)	0.0716	0.0967	0.249	0.0278	0.107
C5AR1 (complement C5a receptor 1)	0.0973	0.432	0.246	0.0251	0.326
PLG (plasminogen)	0.0947	0.188	0.283	0.0195	0.109
ATMIN (ATM interactor)	0.158	0.151	0.3	0.0462	0.12
HYAL2 (hyaluronidase 2)	0.0935	0.13	0.222	0.0311	0.0971
AREL1 (apoptosis resistant E3 ubiquitin protein ligase 1)	0.0846	0.213	0.318	0.0179	0.313
EIF2B3 (eukaryotic translation initiation factor 2B subunit gamma)	0.143	0.191	0.235	0.0204	0.232
KIF25-AS1 (KIF25 antisense RNA 1)	0.112	0.186	0.41	0.0333	0.148
SLC25A14	0.153	0.328	0.276	0.0601	0.0762
EPPIN (epididymal peptidase inhibitor)	0.149	0.105	0.408	0.0285	0.133
CFAP61 (cilia and flagella associated protein 61)	0.143	0.261	0.577	0.0344	0.147
MINDY2 (MINDY lysine 48 deubiquitinase 2)	0.146	0.179	0.412	0.0539	0.256
TMEM181 (transmembrane protein 181)	0.0517	0.154	0.231	0.0324	0.176

6 consecutive entries from above, quoted:
target	BNIP3L mRNA, set 1	NDRG1 mRNA, set 1	BNIP3 mRNA, set 1	ALDOC mRNA, set 1	ACSL5 mRNA, set 1
EIF1AD	0.111	0.441	0.236	0.0396	0.301
FGF18 (fibroblast growth factor 18)	0.246	0.257	0.55	0.127	0.211
PLCD4 (phospholipase C delta 4)	0.179	0.337	0.3	0.0279	0.148
RUVBL1 (RuvB like AAA ATPase 1)	0.0606	0.227	0.321	0.0322	0.132
ZNF594 (zinc finger protein 594)	0.0716	0.0967	0.249	0.0278	0.107
C5AR1 (complement C5a receptor 1)	0.0973	0.432	0.246	0.0251	0.326
